From the supplement of paper PMC12067093, “Discovery and optimisation of a covalent ligand for TRIM25 and its application to targeted protein ubiquitination” (Chemical Science, 2025)
The list shows a part of the results.

Compound: CC1Cc2ccccc2N1C(=O)C1CCCN(C1)C(=O)CCl (mixture of isomers) [TRIM25 ligand 11 (diastereomer mixture)]
Test: probe-labelled cysteine peptide fold change vs DMSO (competition) (log2 fold change); higher = less target engagement (more negative = stronger competition)
Settings: THP-1, incubation time: 4 h
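Further: competitive chemoproteomic profiling in live THP-1 cells with an iodoacetamide desthiobiotin (IA-DTB) probe, comparing probe-labelled peptide intensities in compound-treated cells against DMSO-treated controls.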

## FRY_Q5TBA9_1809_AFGPLWCHEDITPK (UniProt Q5TBA9)
10 µM
  probe-labelled cysteine peptide fold change: -0.0694
50 µM
  probe-labelled cysteine peptide fold change: -0.0471

## FNBP4_Q8N3X1_603_GWSCHWDR (UniProt Q8N3X1)
10 µM
  probe-labelled cysteine peptide fold change: 0.209
50 µM
  probe-labelled cysteine peptide fold change: 0.026

## FLAD1_Q8NFF5_147_SLGVQVCR (UniProt Q8NFF5)
10 µM
  probe-labelled cysteine peptide fold change: -0.128
50 µM
  probe-labelled cysteine peptide fold change: 0.246

## FRMD8_Q9BZ67_206_EKLDSFLPAHLCK (UniProt Q9BZ67)
10 µM
  probe-labelled cysteine peptide fold change: -0.203
50 µM
  probe-labelled cysteine peptide fold change: -0.206

## FLI1_Q01543_83_ESPVDCSVSK (UniProt Q01543)
10 µM
  probe-labelled cysteine peptide fold change: -0.0642
50 µM
  probe-labelled cysteine peptide fold change: -0.198

## FSCN1_Q16658_61_KQIWTLEQPPDEAGSAAVCLR (UniProt Q16658)
10 µM
  probe-labelled cysteine peptide fold change: -0.189
50 µM
  probe-labelled cysteine peptide fold change: -0.212

## FTH1_P02794_131_NDPHLCDFIETHYLNEQVK (UniProt P02794)
10 µM
  probe-labelled cysteine peptide fold change: 0.00582
50 µM
  probe-labelled cysteine peptide fold change: 0.283

## FTSJ1_Q9UET6_238_IIVPFVTCGDLSSYDSDR (UniProt Q9UET6)
10 µM
  probe-labelled cysteine peptide fold change: -0.0326
50 µM
  probe-labelled cysteine peptide fold change: 0.0546

## FYCO1_Q9BQS8_848_AHVQELLQCSER (UniProt Q9BQS8)
10 µM
  probe-labelled cysteine peptide fold change: -0.0477
50 µM
  probe-labelled cysteine peptide fold change: -0.165

## FN1_P02751_401_YSFCTDHTVLVQTR (UniProt P02751)
10 µM
  probe-labelled cysteine peptide fold change: 0.107
50 µM
  probe-labelled cysteine peptide fold change: -0.0413

## FLNB_O75369_1617_CLATGPGIASTVK (UniProt O75369)
10 µM
  probe-labelled cysteine peptide fold change: -0.000454
50 µM
  probe-labelled cysteine peptide fold change: 0.185

## FTO_Q9C0B1_171_ANEDAVPLCMSADFPR (UniProt Q9C0B1)
10 µM
  probe-labelled cysteine peptide fold change: -0.0856
50 µM
  probe-labelled cysteine peptide fold change: -0.483

## FTO_Q9C0B1_472_TLPADQKPECRPYWEK (UniProt Q9C0B1)
10 µM
  probe-labelled cysteine peptide fold change: -0.072
50 µM
  probe-labelled cysteine peptide fold change: -0.27

## FNBP4_Q8N3X1_673_TGTDSNSTESSETSTGSLCK (UniProt Q8N3X1)
10 µM
  probe-labelled cysteine peptide fold change: 0.228
50 µM
  probe-labelled cysteine peptide fold change: -0.0467

## FNDC3A_Q9Y2H6_369_GTPSEAEIFTTLSCEPDIPNPPR (UniProt Q9Y2H6)
10 µM
  probe-labelled cysteine peptide fold change: 0.0204
50 µM
  probe-labelled cysteine peptide fold change: -0.545

## FKBP5_Q13451_340_AVECCDK (UniProt Q13451)
10 µM
  probe-labelled cysteine peptide fold change: 0.024
50 µM
  probe-labelled cysteine peptide fold change: -0.0377

## FTSJ3_Q8IY81_577_QQLPQTPPSCLK (UniProt Q8IY81)
10 µM
  probe-labelled cysteine peptide fold change: -0.164
50 µM
  probe-labelled cysteine peptide fold change: -0.174

## FLCN_Q8NFG4_454_STLHPVGCEDDQSLSK (UniProt Q8NFG4)
10 µM
  probe-labelled cysteine peptide fold change: 0.135
50 µM
  probe-labelled cysteine peptide fold change: -0.148

## FKBP7_Q9Y680_104_GLDIAMTDMCPGEK (UniProt Q9Y680)
10 µM
  probe-labelled cysteine peptide fold change: 0.00783
50 µM
  probe-labelled cysteine peptide fold change: -0.0524

## FTH1_P02794_91+103_KPDCDDWESGLNAMECALHLEK (UniProt P02794)
10 µM
  probe-labelled cysteine peptide fold change: -0.0941
50 µM
  probe-labelled cysteine peptide fold change: 0.0264

## FSCN1_Q16658_121_LSCFAQTVSPAEK (UniProt Q16658)
10 µM
  probe-labelled cysteine peptide fold change: 0.267
50 µM
  probe-labelled cysteine peptide fold change: 0.258

## FMNL1_O95466_69_KWELICDQER (UniProt O95466)
10 µM
  probe-labelled cysteine peptide fold change: -0.128
50 µM
  probe-labelled cysteine peptide fold change: 0.000214

## FHL1_Q13642_150+153_GEDFYCVTCHETK (UniProt Q13642)
10 µM
  probe-labelled cysteine peptide fold change: -0.133
50 µM
  probe-labelled cysteine peptide fold change: -0.0337

## FUBP3_Q96I24_109_IQAESGCK (UniProt Q96I24)
10 µM
  probe-labelled cysteine peptide fold change: 0.00832
50 µM
  probe-labelled cysteine peptide fold change: 0.192

## FNDC3A_Q9Y2H6_625_EHLCDR (UniProt Q9Y2H6)
10 µM
  probe-labelled cysteine peptide fold change: 0.0514
50 µM
  probe-labelled cysteine peptide fold change: 0.000825

## FKBP15_Q5T1M5_828_DEHLQQYQEVCAQR (UniProt Q5T1M5)
10 µM
  probe-labelled cysteine peptide fold change: -0.0655
50 µM
  probe-labelled cysteine peptide fold change: 0.0221

## GABPA_Q06546_61_LQCSLDAHEICLQDIQLDPER (UniProt Q06546)
10 µM
  probe-labelled cysteine peptide fold change: -0.0937
50 µM
  probe-labelled cysteine peptide fold change: -0.107

## FUCA2_Q9BTY2_269_WGAGSICK (UniProt Q9BTY2)
10 µM
  probe-labelled cysteine peptide fold change: -0.04
50 µM
  probe-labelled cysteine peptide fold change: -0.0426

## FTO_Q9C0B1_249_SAVAVYSYSCEGPEEESEDDSHLEGRDPDIWHVGFK (UniProt Q9C0B1)
10 µM
  probe-labelled cysteine peptide fold change: -0.144
50 µM
  probe-labelled cysteine peptide fold change: -0.21

## FPGT_O14772_424_CSVAPGSVVEYSR (UniProt O14772)
10 µM
  probe-labelled cysteine peptide fold change: 0.105
50 µM
  probe-labelled cysteine peptide fold change: 0.121

## FGD3_Q5JSP0_184_LHLLDQVFCTR (UniProt Q5JSP0)
10 µM
  probe-labelled cysteine peptide fold change: -0.187
50 µM
  probe-labelled cysteine peptide fold change: 0.0888

## GAK_O14976_595_SGCRPFCEVYVGDER (UniProt O14976)
10 µM
  probe-labelled cysteine peptide fold change: -0.0475
50 µM
  probe-labelled cysteine peptide fold change: -0.0504

## G6PC3_Q9BUM1_269_DSGAALGLGIALHSPCYAQVR (UniProt Q9BUM1)
10 µM
  probe-labelled cysteine peptide fold change: 0.0276
50 µM
  probe-labelled cysteine peptide fold change: 0.0953

## FN1_P02751_470_FGFCPMAAHEEICTTNEGVMYR (UniProt P02751)
10 µM
  probe-labelled cysteine peptide fold change: 0.0472
50 µM
  probe-labelled cysteine peptide fold change: 0.0343

## FKBP9_O95302_47_FVPDECPR (UniProt O95302)
10 µM
  probe-labelled cysteine peptide fold change: 0.0656
50 µM
  probe-labelled cysteine peptide fold change: 0.0999

## G6PD_P11413_158_NIHESCMSQIGWNR (UniProt P11413)
10 µM
  probe-labelled cysteine peptide fold change: 0.171
50 µM
  probe-labelled cysteine peptide fold change: -0.271

## FKBP5_Q13451_107_KGEICHLLCKPEYAYGSAGSLPK (UniProt Q13451)
10 µM
  probe-labelled cysteine peptide fold change: -0.0225
50 µM
  probe-labelled cysteine peptide fold change: 0.0393

## FLII_Q13045_1067_TNGSALCTR (UniProt Q13045)
10 µM
  probe-labelled cysteine peptide fold change: -0.0286
50 µM
  probe-labelled cysteine peptide fold change: 0.125

## FHL1_Q13642_10_FDCHYCR (UniProt Q13642)
10 µM
  probe-labelled cysteine peptide fold change: -0.0131
50 µM
  probe-labelled cysteine peptide fold change: 0.00791
